The other results are listed elsewhere or left out.
What was measured:
Assay in all cases: log2 fold change, soluble protein after heating vs DMSO (PISA); higher = thermal stabilisation; K562 lysate, 10 uM; active = over 0.2 and 3.5 SD of the protein, either way, in both replicates (recomputed)
[1] = compound: C1=CC=C(C=C1)[C@H](COC2=CC3=C(C=C2)NC(=O)N3)NC(=O)C4=CC=CN(C4=O)CC5=CC(=C(C=C5)F)F
Summary of the method: (§1)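 Following dounce homogenisation of K562 pellets in PBS pH 7.4 with 1 mM MgCl2, crude extract at 1 mg/mL protein was incubated for 30 min with 10 μM compound. Aliquots were then heated for 3 min over 48°C-58°C and pooled, NP-40 was added to 0.5% at 4°C, and soluble protein was recovered as the supernatant at 21,000xg for 90 min. Channel-sum-equalised TMTpro 16plex LC-MS/MS quantified this protein. Each value, from duplicates, is a log-two fold change in thermal stability relative to solvent controls.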

By UniProt entry, the sequences of proteins in these tests, tags left out. Where a name states a change or a piece, a line headed by the entry shows the natural chain unless it says otherwise.
UniProt Q96MH6: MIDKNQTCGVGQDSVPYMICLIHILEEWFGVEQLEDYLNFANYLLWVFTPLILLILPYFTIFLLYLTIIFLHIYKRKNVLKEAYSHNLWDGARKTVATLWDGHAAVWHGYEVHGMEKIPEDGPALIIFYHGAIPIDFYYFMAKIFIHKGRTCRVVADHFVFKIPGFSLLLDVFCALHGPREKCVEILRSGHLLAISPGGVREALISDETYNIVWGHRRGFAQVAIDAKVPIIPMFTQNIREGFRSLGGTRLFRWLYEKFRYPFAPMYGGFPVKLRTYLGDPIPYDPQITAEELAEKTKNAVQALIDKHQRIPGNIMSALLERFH
UniProt O96008: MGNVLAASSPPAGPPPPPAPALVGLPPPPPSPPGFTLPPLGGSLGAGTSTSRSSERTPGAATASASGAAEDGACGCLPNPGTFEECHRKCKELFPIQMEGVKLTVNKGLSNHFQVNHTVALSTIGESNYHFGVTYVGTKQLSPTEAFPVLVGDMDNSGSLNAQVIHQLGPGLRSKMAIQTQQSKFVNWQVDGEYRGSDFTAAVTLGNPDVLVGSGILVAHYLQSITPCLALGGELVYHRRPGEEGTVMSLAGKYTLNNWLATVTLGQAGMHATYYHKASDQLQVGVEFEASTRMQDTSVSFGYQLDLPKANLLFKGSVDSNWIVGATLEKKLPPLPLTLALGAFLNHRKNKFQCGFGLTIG
UniProt Q92547, whole entry, looked up: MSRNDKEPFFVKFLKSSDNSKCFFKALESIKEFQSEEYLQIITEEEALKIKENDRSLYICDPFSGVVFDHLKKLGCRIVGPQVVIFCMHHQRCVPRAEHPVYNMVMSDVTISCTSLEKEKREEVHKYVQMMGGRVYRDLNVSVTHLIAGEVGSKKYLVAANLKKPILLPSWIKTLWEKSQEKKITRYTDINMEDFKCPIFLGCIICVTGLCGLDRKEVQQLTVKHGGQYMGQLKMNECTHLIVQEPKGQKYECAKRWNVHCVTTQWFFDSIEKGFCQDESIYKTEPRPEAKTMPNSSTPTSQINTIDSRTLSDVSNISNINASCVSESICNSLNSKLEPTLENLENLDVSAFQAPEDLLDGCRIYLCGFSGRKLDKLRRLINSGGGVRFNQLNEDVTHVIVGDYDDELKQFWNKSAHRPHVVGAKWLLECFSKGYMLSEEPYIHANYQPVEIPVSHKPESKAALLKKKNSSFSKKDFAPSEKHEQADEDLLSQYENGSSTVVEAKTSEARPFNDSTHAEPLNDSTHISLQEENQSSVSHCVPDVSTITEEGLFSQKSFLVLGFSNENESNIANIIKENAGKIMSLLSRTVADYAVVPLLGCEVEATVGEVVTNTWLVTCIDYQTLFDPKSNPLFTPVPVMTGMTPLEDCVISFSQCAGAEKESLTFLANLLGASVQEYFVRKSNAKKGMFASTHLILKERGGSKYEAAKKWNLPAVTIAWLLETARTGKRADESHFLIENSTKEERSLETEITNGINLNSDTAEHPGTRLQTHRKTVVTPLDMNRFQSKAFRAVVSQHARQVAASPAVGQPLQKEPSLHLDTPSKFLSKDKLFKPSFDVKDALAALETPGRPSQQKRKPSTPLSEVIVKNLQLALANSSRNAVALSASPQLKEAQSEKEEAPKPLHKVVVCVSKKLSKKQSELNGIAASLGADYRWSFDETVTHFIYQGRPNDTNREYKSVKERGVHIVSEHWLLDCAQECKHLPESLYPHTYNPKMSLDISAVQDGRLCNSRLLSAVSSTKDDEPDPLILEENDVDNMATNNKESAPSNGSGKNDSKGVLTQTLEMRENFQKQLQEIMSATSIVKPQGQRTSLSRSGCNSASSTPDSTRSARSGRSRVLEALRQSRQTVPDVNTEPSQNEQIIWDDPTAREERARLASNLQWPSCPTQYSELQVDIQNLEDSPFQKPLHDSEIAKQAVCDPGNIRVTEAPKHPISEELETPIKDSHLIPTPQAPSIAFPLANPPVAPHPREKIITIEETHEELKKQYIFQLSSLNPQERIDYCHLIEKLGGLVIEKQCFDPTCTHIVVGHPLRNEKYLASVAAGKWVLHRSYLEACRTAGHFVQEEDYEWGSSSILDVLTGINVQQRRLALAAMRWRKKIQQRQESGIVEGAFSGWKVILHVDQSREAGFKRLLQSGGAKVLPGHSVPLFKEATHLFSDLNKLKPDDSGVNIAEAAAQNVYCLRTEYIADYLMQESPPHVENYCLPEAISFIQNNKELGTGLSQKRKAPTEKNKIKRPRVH
UniProt Q9H1E5: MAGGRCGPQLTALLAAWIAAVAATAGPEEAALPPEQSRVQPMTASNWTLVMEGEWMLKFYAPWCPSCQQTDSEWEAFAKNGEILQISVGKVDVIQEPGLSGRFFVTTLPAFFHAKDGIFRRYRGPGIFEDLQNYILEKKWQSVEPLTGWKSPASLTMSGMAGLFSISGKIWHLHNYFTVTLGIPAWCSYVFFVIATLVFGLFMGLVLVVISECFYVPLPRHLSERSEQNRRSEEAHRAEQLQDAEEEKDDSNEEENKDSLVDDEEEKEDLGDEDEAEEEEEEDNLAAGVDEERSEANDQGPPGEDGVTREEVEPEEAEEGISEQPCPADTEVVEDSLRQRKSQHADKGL
UniProt Q9NZR1: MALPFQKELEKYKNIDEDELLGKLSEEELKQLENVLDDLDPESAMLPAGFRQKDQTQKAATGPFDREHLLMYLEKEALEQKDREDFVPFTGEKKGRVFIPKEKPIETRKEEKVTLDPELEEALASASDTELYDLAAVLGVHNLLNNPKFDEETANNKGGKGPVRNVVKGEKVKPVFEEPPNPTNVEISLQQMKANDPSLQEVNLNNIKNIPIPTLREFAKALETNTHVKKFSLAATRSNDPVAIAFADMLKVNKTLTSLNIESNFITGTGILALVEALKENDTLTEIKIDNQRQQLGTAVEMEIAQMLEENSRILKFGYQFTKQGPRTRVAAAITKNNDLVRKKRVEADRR
UniProt Q12767: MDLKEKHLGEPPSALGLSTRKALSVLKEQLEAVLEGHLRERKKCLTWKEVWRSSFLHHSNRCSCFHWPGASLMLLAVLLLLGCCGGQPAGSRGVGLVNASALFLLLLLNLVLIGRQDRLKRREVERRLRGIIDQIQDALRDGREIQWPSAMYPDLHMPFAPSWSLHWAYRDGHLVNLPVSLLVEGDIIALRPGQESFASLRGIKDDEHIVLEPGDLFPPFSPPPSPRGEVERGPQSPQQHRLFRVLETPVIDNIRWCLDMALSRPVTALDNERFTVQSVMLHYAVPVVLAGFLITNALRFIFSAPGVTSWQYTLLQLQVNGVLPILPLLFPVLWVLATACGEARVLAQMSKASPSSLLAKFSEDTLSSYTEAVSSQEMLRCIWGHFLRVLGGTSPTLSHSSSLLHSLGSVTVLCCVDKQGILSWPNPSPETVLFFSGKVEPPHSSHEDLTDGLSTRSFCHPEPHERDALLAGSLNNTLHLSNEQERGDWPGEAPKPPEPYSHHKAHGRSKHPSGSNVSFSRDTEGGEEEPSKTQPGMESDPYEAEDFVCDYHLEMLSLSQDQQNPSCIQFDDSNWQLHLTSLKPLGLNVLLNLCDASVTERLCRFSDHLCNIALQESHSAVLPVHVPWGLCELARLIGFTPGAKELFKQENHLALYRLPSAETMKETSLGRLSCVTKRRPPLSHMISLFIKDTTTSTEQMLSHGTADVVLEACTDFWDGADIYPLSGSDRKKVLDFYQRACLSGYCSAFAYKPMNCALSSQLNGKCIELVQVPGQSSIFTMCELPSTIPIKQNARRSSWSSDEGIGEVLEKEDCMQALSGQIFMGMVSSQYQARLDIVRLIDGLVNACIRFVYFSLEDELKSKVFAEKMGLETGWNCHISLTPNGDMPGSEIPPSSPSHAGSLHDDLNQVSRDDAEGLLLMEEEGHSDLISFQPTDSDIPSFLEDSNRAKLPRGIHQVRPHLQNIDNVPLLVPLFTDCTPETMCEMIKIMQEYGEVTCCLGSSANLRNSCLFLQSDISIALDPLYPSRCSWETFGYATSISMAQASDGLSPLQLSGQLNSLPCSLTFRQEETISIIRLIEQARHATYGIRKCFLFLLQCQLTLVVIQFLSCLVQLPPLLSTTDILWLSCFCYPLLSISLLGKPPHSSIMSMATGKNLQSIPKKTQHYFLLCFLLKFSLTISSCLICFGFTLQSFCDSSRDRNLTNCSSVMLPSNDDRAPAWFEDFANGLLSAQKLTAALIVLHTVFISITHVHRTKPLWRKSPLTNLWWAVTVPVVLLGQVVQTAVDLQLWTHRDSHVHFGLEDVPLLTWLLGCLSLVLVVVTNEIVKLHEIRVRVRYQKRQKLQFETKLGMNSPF
UniProt Q5JTV8: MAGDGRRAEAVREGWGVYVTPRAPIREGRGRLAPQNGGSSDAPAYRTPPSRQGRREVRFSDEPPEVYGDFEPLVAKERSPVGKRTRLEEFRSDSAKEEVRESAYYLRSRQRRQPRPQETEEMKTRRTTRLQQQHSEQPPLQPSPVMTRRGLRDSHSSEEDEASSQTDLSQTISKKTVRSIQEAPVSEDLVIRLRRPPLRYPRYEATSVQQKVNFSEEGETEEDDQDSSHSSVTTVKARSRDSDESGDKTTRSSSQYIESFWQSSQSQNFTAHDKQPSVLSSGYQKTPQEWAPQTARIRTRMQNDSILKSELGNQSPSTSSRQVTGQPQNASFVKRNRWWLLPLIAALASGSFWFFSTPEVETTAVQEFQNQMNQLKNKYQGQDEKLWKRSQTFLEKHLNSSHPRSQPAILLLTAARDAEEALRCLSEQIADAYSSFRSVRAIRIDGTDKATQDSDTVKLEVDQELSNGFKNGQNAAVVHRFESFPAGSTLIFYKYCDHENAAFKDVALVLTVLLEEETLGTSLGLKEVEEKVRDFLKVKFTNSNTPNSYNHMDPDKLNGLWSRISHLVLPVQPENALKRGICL
UniProt Q9C0C2: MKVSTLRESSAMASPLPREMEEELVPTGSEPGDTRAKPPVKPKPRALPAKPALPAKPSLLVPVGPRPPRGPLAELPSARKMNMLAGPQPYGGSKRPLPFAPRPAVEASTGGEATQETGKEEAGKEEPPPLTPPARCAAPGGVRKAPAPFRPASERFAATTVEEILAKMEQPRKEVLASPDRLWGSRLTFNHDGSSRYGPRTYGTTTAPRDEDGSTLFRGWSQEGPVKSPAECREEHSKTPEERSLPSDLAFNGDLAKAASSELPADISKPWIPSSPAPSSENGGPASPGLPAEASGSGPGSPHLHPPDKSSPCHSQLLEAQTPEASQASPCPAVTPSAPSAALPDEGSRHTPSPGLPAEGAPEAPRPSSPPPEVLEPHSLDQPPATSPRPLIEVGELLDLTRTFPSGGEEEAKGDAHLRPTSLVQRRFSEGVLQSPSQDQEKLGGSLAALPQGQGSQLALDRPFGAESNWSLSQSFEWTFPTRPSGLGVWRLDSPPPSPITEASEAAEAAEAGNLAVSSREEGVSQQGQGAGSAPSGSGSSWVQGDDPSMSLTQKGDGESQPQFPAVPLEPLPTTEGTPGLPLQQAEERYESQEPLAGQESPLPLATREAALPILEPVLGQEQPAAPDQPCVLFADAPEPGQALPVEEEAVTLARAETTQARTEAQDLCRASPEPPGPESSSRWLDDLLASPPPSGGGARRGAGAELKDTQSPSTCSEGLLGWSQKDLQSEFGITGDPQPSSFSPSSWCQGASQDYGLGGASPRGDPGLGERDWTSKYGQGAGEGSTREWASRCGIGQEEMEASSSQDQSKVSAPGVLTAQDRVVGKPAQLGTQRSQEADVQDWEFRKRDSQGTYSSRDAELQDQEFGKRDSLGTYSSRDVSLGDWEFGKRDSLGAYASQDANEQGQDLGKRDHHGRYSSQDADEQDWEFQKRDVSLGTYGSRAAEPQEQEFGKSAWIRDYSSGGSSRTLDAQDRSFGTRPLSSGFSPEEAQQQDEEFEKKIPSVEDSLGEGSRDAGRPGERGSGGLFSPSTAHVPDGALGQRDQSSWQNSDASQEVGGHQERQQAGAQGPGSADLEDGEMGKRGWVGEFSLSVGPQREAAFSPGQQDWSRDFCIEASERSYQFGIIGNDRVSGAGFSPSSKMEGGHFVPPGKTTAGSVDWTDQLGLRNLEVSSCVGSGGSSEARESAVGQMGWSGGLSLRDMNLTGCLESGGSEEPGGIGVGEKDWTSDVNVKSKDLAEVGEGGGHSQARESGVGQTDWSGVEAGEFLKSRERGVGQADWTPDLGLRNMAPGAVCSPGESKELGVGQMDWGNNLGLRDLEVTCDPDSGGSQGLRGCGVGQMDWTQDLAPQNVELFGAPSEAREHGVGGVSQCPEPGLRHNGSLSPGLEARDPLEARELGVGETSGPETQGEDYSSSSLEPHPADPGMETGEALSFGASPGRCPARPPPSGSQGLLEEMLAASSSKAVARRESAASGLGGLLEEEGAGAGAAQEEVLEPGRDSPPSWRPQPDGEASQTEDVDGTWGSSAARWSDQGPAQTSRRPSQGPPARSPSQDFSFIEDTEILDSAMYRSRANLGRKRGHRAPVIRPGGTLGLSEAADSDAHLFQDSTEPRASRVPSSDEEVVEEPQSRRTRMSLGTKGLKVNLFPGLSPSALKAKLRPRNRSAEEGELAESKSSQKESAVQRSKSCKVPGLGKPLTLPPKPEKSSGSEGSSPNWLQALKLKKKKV

[2] = compound: CC1=C(SC2=C1C(=N[C@H](C3=NN=C(N32)C)CC(=O)N)C4=CC=C(C=C4)Cl)C
Summary of the method: as §1

[3] = compound: CC1=C2C(=CC=C1)N=C(N(C2=O)C3=CC=CC=C3C)CN4C=NC5=C(N=CN=C54)N
Summary of the method: as §1

[4] = compound: Cc1sc2c(c1C)C(c1ccc(Cl)cc1)=N[C@@H](CC(=O)OC(C)(C)C)c1nnc(C)n1-2
Summary of the method: as §1

[5] = compound: c1ccc([C@@H]2C[C@H]2NC2CCNCC2)cc1
Summary of the method: as §1

Measured: log2 fold change

TOPAZ1 (UniProt Q8N9V7)
inactive: [1] -0.068 | [2] 0.028 | [3] -0.02

TPRKB (UniProt Q9Y3C4)
inactive: [1] 0.002 | [2] 0.001 | [3] -0.023 | [4] -0.033 | [5] -0.011

TMOD3 (UniProt Q9NYL9)
inactive: [1] 0.042 | [2] 0.012 | [3] -0.027 | [4] -0.034 | [5] -0.007

TMEM199 (UniProt Q8N511)
inactive: [1] 0.005 | [2] -0.002 | [3] 0.07 | [4] -0.046 | [5] -0.029

TMLHE isoform 8 (UniProt Q9NVH6)
inactive: [1] 0.029 | [2] -0.046 | [3] 0.015 | [4] -0.075 | [5] -0.019

TMEM205 (UniProt Q6UW68)
inactive: [1] -0.162 | [2] -0.112 | [3] 0.097 | [4] -0.124

TMEM87B (UniProt Q96K49)
inactive: [2] 0.02 | [3] 0.075 | [4] 0.001 | [5] 0.038
active: [1] 0.529

TMEM68 (UniProt Q96MH6)
inactive: [1] 0.008 | [2] -0.028 | [3] 0.013 | [4] 0.029 | [5] -0.039

TOMM40 (UniProt O96008)
inactive: [1] 0.006 | [2] 0 | [3] -0.025 | [4] -0.006 | [5] -0.037

TPD52L2 isoform 7 (UniProt O43399)
inactive: [1] 0.046 | [2] -0.036 | [3] -0.024 | [4] 0.024 | [5] -0.058

TOPBP1 (UniProt Q92547)
inactive: [1] 0.012 | [2] 0.001 | [3] 0.026 | [4] -0.016 | [5] 0.099

TMX4 (UniProt Q9H1E5)
inactive: [1] 0.06 | [2] 0.003 | [3] -0.026 | [4] 0.021 | [5] 0.09

TMOD2 (UniProt Q9NZR1)
inactive: [1] -0.068 | [2] -0.042 | [3] 0.014 | [4] 0.039 | [5] 0

TMPO (UniProt P42166)
inactive: [1] -0.013 | [2] 0.015 | [3] 0.015 | [4] 0.011 | [5] 0.059

2 successive entries already listed:
TOPAZ1 (UniProt Q8N9V7)
inactive: [1] -0.068 | [2] 0.028 | [3] -0.02

TPRKB (UniProt Q9Y3C4)
inactive: [1] 0.002 | [2] 0.001 | [3] -0.023 | [4] -0.033 | [5] -0.011

(listing goes on)

TMEM246 (UniProt Q9BRR3)
inactive: [1] -0.184 | [2] 0.009

TMEM94 isoform 2 (UniProt Q12767)
inactive: [1] 0.079 | [2] 0.213 | [3] 0.105 | [4] -0.089

TOR1AIP2 (UniProt Q8NFQ8)
inactive: [1] 0.007 | [2] 0.02 | [3] -0.018 | [4] 0.03 | [5] 0.028

TMEM87A (UniProt Q8NBN3)
inactive: [1] 0.066 | [2] -0.014 | [3] -0.011 | [4] -0.011 | [5] -0.128

TOR1AIP1 (UniProt Q5JTV8)
inactive: [1] 0.113 | [2] 0.109 | [3] -0.319 | [4] -0.132

TNKS1BP1 (UniProt Q9C0C2)
inactive: [1] 0.028 | [2] 0.008 | [3] -0.004 | [4] -0.033 | [5] -0.03

TRA2A (UniProt Q13595)
inactive: [1] -0.076 | [2] 0.065 | [3] 0.034 | [4] -0.054 | [5] 0.004

TNNI3K isoform 1 (UniProt Q59H18)
inactive: [1] -0.037 | [2] 0.019 | [3] 0.026 | [4] 0.03 | [5] -0.008

TMEM43 (UniProt Q9BTV4)
inactive: [1] 0.045 | [2] 0.006 | [3] 0.026 | [4] 0.003 | [5] -0.052

TMX1 (UniProt Q9H3N1)
inactive: [1] -0.04 | [2] 0.017 | [3] 0.016 | [4] 0.033 | [5] 0.004

TOR1AIP1 isoform 3 (UniProt Q5JTV8)
inactive: [1] 0.011 | [2] 0.022 | [3] 0.01 | [4] -0.011 | [5] -0.044
